Data source: PubChem BioAssay AID1259254 (NCATS, 2017)
Assay: 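Gene knock-downs that lead to re-replication, shown by excess G2 DNA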 (primary screen). Cells: human HCT116 colorectal cancer cells. Reagents: single siRNA against human genes. Time to read-out: 3 days. Measurement: 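Nuclei stained with Hoechst and imaged; cell-cycle phase assigned by DNA content; G2 share scaled per plate, non-targeting siRNA 0%, GMNN siRNA 100%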. Reading the numbers: G2 robust z-score: higher = more G2 cells, more excess DNA replication. Hit rule: 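Active siRNAs have a G2 robust z of 5 or more median absolute deviations over the median, which in these data means about 38% or higher of GMNN control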.
Shown is a random part of about 59,000 deposited reagents. About 1,550 of all reagents (2.6%) count as active. 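G2 share is only a proxy for re-replication; each gene was hit by three separate siRNAs, and active genes were retested.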 A number with no mark means an inactive call. Reagents against one gene are numbered here. Further read-outs or replicates are left out here. Not given: the amount of reagent.

gene	reagent no.	G2 robust z-score
EXOG	1	-0.378
EXOG	2	-0.459
EXOG	3	1.89
CEP350	1	0.724
CEP350	2	-0.164
CEP350	3	0.92
ACKR4	1	2.11
ACKR4	2	-0.0191
ACKR4	3	2.5
DEFB136	1	-0.495
DEFB136	2	-0.182
DEFB136	3	-0.826
TWIST2	1	-0.62
TWIST2	2	2.67
TWIST2	3	1.36
ASMT	1	-0.567
ASMT	2	1.96
ASMT	3	-0.515
KCNJ8	1	-0.137
KCNJ8	2	-0.022
KCNJ8	3	-1.15
TRIM50	1	-0.883
TRIM50	2	1.59
TRIM50	3	5.83 (active)

The list goes on; the last 8 above are carried over.
gene	reagent no.	G2 robust z-score
ASMT	2	1.96
ASMT	3	-0.515
KCNJ8	1	-0.137
KCNJ8	2	-0.022
KCNJ8	3	-1.15
TRIM50	1	-0.883
TRIM50	2	1.59
TRIM50	3	5.83 (active)
ATP8B3	1	1.99
ATP8B3	2	0.171
ATP8B3	3	-1.42
IL37	1	2.65
IL37	2	-1.27
IL37	3	6.16 (active)
LRR1	1	1.64
LRR1	2	2.86
LRR1	3	-0.945
RPL8	1	3.79
RPL8	2	3.77
RPL8	3	6.27 (active)
B3GNT5	1	0.0764
B3GNT5	2	0.197
B3GNT5	3	3.63
ICOSLG	1	2.65
ICOSLG	2	-0.324
ICOSLG	3	-0.638
RPS17	1	0.39
RPS17	2	3.02
RPS17	3	2.19
EXOSC2	1	-0.616
EXOSC2	2	-0.292
EXOSC2	3	-1.01
VPREB1	1	-0.406
VPREB1	2	-0.356
VPREB1	3	5.8 (active)
RHBDL2	1	0.63
RHBDL2	2	2.03
RHBDL2	3	0.179
OPHN1	1	-0.797
OPHN1	2	0.103
OPHN1	3	-0.128
ZFP69B	1	0.447
ZFP69B	2	-1.4
ZFP69B	3	1.19
TRIOBP	1	0.373
TRIOBP	2	0.131
TRIOBP	3	0.197
GRAP	1	0.229
GRAP	2	-1.04
GRAP	3	-0.501
GYG2	1	2.03
GYG2	2	-0.0311
GYG2	3	-0.762
